This assay addresses TwinStrep-HA-ERCC6L2 (endogenously tagged) (mouse (endogenous in CH12-F3)) (UniProt Q9JIM3). As to the kind of experiment: affinity purification with mass spectrometry.

Sequences of proteins named here, by UniProt entry; tags and fusion partners are left off.
UniProt Q9JIM3: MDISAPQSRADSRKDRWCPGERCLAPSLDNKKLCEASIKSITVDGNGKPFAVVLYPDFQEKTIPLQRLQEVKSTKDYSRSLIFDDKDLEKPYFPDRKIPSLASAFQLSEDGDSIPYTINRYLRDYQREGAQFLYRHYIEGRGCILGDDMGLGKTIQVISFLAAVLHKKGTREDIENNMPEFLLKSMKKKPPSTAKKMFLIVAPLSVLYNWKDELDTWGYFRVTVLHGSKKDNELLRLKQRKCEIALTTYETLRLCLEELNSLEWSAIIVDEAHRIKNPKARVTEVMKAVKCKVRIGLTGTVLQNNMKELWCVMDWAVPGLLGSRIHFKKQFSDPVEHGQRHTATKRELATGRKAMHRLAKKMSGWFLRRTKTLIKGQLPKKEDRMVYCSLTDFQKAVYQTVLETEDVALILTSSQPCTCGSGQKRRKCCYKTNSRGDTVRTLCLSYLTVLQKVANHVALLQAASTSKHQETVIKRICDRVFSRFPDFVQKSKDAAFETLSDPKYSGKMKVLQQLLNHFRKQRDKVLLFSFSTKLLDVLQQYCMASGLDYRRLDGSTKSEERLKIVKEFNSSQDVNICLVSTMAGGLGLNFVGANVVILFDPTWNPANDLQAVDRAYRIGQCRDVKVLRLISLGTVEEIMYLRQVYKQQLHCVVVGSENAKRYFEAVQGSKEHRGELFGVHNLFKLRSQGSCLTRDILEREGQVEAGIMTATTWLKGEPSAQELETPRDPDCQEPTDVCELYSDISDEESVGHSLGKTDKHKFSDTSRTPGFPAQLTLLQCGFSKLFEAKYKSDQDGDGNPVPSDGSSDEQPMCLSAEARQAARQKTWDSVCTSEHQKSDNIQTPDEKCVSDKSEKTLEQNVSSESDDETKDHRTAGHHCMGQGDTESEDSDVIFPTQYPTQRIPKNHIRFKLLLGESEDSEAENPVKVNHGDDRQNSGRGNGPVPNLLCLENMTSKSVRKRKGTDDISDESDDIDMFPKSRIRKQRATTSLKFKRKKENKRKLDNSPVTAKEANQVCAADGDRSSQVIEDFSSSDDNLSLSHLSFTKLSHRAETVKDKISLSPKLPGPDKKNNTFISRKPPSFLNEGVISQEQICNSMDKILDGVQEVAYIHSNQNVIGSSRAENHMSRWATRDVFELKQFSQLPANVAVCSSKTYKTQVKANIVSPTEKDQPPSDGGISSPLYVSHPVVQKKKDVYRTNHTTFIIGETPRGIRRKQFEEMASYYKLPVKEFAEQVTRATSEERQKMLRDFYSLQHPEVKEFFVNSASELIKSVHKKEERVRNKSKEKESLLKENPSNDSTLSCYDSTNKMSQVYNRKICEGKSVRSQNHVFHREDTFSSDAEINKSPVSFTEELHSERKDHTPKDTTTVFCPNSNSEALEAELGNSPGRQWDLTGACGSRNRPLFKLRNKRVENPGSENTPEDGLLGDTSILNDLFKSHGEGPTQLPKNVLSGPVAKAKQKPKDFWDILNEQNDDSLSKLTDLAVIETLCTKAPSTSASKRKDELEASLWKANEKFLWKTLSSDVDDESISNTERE

The values below come from paper doi:10.1101/2025.11.28.691009.

No constants are given. Whether binding was seen depends on the method and setting. Binding seen in cells or lysates may run through a third protein. These calls come from enrichment with a bait or labelling near it, and not all partners need be listed.

B1: MRI/CYREN (endogenous) (protein, UniProt Q8BHZ5 1-157)
chain: METLKSKTKTRVLPSWMTAPVDERKVVSVKTATRKQTAAWAQRVGAATRAPATETVYCMNEAEMVDVALGILIEGRKQEKPWEQRSLEATDKLQLSPPCSSSPGSSSEEEDSRISSLAPGLSPPRGPEASDSPCSRSPEEEKEEEDALKYVREIFFS
In the case of B1, the binding entry is recorded as “binds”.
